The target of this assay is T1, CD1d expressed on human renal proximal tubule epithelial cells (human (endogenous in RPTEC)) (UniProt P15813).
T1 sequence: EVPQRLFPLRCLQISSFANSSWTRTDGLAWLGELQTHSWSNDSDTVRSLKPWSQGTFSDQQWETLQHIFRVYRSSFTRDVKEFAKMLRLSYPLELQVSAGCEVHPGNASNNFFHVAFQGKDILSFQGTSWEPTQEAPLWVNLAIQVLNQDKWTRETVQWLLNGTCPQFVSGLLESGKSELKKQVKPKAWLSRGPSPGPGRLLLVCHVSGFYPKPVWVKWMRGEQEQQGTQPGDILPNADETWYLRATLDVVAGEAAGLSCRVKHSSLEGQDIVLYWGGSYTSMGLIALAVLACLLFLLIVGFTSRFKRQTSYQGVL
In words: co-IP; only the binder purified.

Chains of the proteins cited; added tags and fusions are not shown. Residues count along the entry.
UniProt P01552, residues 28-266: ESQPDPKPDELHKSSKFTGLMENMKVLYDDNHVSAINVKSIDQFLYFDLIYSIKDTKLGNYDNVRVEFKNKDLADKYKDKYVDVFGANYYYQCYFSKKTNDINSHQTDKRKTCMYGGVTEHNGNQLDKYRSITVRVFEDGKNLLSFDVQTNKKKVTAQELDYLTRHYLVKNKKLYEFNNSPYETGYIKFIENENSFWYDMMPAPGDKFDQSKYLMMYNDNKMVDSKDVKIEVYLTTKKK

These are yes or no findings as the source states them, for the method shown. In cells and extracts the contact can be indirect. Some results given as binding are weak or reduced against the parent protein; the word gives no strength.

Regarding “staphylococcal enterotoxin B (from UniProt P01552 28-266)”, the binding entry was “binds”.
